# Data reported in the supplement of paper PMC3334620.
# The full ranking holds about 33,000 sequences; the median of “E-score (-0.5 to 0.5)” is about -8e-05, and the highest 2% start at about 0.23. This is one part of the list.
# Target: T1, Nrg2 (UniProt P38082)
# T1 sequence: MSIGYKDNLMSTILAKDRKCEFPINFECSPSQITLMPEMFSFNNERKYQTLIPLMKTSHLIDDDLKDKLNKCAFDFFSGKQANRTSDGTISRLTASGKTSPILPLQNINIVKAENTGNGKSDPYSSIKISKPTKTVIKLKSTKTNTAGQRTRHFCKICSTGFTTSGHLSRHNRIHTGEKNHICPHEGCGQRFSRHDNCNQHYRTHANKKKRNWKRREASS
# Experiment: PBM E-score (8-mer binding enrichment) (E-score (-0.5 to 0.5)); higher = stronger / more preferred TF binding
# Settings: protein concentration: 100 nM; construct: GST-full length
# Procedure: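 Universal 'all 10-mer' protein binding microarrays (Agilent AMADID 015681) probed with GST-tagged S. cerevisiae TFs (full-length or DBD) made by in vitro transcription/translation (PURExpress), about 100-200 nM. Bound TF was detected with fluorescent anti-GST. Each ungapped 8-mer (which stands for itself and its reverse complement) is scored by the PBM enrichment score (E-score), a modified Wilcoxon-Mann-Whitney statistic from -0.5 to +0.5, computed with the Universal PBM Analysis Suite. Scale: above 0.35 generally sequence-specific binding.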
row,Sequence,PBM E-score
1,CTTCTACC,-0.175
2,ACATAGGC,0.0492
3,CTGCGGCC,-0.0367
4,CTGCGGGC,-0.0348
5,ACTATAGT,0.208
6,AATATCAG,0.162
7,GTTCGCAA,0.123
8,ATCGAAAA,0.0461
9,AACCTTCC,-0.0967
10,CTGAAATA,0.0883
11,CAGAAACG,0.0864
12,GCGTCACC,-0.236
13,TAATTACA,0.0753
14,AAAGTTTA,0.0807
15,GATGAAAC,0.219
16,CGGGCGCA,-0.0283
17,GGTTTACA,0.0723
18,AGCGGGGC,-0.148
19,AGCGAATG,-0.12
20,ACCATACG,-0.0219
21,AAGGCCTG,-0.27
22,ATTAGCTG,0.0519
23,AGTAACGC,-0.0294
24,AAACATGC,-0.042
25,CTCATGAG,0.0974

row,Sequence,PBM E-score
1,GAACTAGC,0.0818
2,CCATAAGA,0.137
3,GCTTCAGA,-0.0839
4,ATCCAAAA,0.0493
5,CTCCTCGC,-0.124
6,ATATGCGG,0.153
7,AGCCGCTC,-0.0104
8,ACGGAGTG,-0.06
9,AGCGCCAT,-0.111
10,CAAGTACC,-0.0878
11,AGGTCGGC,0.00778
12,AACTCTAG,-0.0836
13,AGATCCCT,0.156
14,AGCCGCTG,-0.135
15,CACCTTCA,-0.0868
16,ACCCGTGA,-0.125
17,CTGCTAAC,-0.0562
18,ACCACACC,0.011
19,GGGACCCC,0.164
20,AAGGAGGT,-0.191
21,ACTCCAAA,-0.0826
22,CTTCCCTA,-0.107
23,ACCATCCC,0.0369
24,AGTTGCCA,-0.0533
25,CCTGTCGA,-0.00079

# Quoted at random: 7 records from the list, in no set order.
row,Sequence,PBM E-score
5,CTCCTCGC,-0.124
18,ACCACACC,0.011
7,AGCCGCTC,-0.0104
22,CTTCCCTA,-0.107
16,ACCCGTGA,-0.125
13,TAATTACA,0.0753
15,CACCTTCA,-0.0868

# Carrying on.

row,Sequence,PBM E-score
1,CTGGTAAC,0.0868
2,AAAATGAG,0.0582
3,AATGACGG,0.125
4,CACTGTGC,0.0456
5,CACAGGGG,-0.0405
6,ATCGCTAG,0.0625
7,GGGGAAGA,-0.245
8,TGCGAACA,-0.0187
9,AGTAGAAG,-0.0258
10,AAGACAGT,-0.0479
11,ACAGGGGC,0.0717
12,CCCCGAAC,-0.0702
13,CAGTGGTA,-0.0969
14,AAGGGGAA,-0.201
15,ATAAGCGG,-0.0586
16,AATCTGGG,-0.13
17,GCACCCAC,0.098
18,AACAGACT,0.0725
19,AGCTAGGA,0.0833
20,ACTAGGAT,-0.0878
21,CCCGTACC,-0.0377
22,CAGTTAGC,-0.155
23,AACGATCA,-0.144
24,AAACTGAG,-0.0822
25,GTGGCCGA,-0.025

row,Sequence,PBM E-score
1,GTGGATTA,0.0668
2,AGCAGGAC,0.0159
3,CACTCAGA,0.159
4,TATGTGGA,0.134
5,ATGACCGG,-0.241
6,GATTCTCC,-0.0747
7,AGTATTTC,0.122
8,CCCCTGAC,0.235
9,CCCTTCAA,-0.0779
10,AAACTCGT,0.131
11,AAATCGGT,-0.173
12,TAGGAGAA,-0.208
13,ACTCGAGC,0.073
14,CGGCGGGC,0.0159
15,ACGCTGGG,-0.193
16,GGTAGTTA,0.0019
17,GTGATTCA,0.0815
18,CGTAATTA,0.041
19,GGAGTCGA,-0.065
20,CGTACGAC,-0.248
21,CAGATCAC,-0.109
22,CGATGGAG,-0.0647
23,ACTGGGAT,-0.0295
24,ACATATAC,0.034
25,CGGCAGGC,-0.196

row,Sequence,PBM E-score
1,AGGCAAGG,-0.259
2,ATGGACGG,-0.00375
3,CACCGTGG,-0.154
4,CAGTCCGC,-0.156
5,GGCTGCGA,-0.145
6,AGCTAAAG,-0.141
7,CATCAAAG,-0.0279
8,ACTACGTG,-0.22
9,AAACTATA,0.0775
10,AAACCTTA,0.0529
11,ACGACGCC,-0.203
12,ATGCGAGA,-0.0118
13,CCGCTGCC,-0.109
14,CAAATACC,-0.0494
15,CGCGTCAA,-0.0451
16,ATCGTGAG,0.0132
17,AGCCAAAC,0.121
18,CGAATCTC,-0.00192
19,ATACTAAA,0.234
20,CAATCGGG,-0.00241
21,CTGCGTCC,-0.0464
22,GGCTTTAA,-0.0395
23,GAGATCTC,0.095
24,ATCCTGTA,-0.0537
25,AGCAAATG,0.0488

row,Sequence,PBM E-score
1,GGCATTAC,0.117
2,TAGAGACA,-0.125
3,TATGTAGA,0.00754
4,AGATGAGC,0.00437
5,CATGCAAG,0.088
6,CACGAGGA,0.0348
7,CCGAGCTA,-0.0408
8,ATGGTGGC,-0.337
9,GAGTCATA,-0.106
10,ATATTTAC,0.0835
11,AAAAGTGA,0.162
12,GGAACGGA,-0.0562
13,AGTAACAA,0.0385
14,CGCCTACA,0.0409
15,CGCCTAGC,-0.315
16,GCACGCAA,-0.154
17,GGAATATA,0.226
18,CTACAGAG,-0.106
19,AAACGGCT,-0.0934
20,AAGTGAAG,0.119
21,ATGGAGTG,-0.118
22,ACTATCAT,0.0714
23,AGTTCACA,0.0346
24,AGGTTAGA,-0.149
25,TCAATCAA,0.0432

row,Sequence,PBM E-score
1,CGTATATC,0.00015
2,ACCGCAAC,0.269
3,ATCCCCCC,-0.386
4,CTCAGGCC,-0.257
5,CGTGCCTA,-0.0338
6,ACTCCGCT,-8e-05
7,AGTACTCG,0.115
8,CTTTTCCA,-0.202
9,CGCCAGGC,-0.0686
10,GACTCCCA,-0.248
11,GCGTTATA,0.0618
12,CATGGGTC,-0.0418
13,GAATCAAC,0.144
14,AGCTCTAG,-0.0598
15,GACACGAA,0.142
16,GGGTCGTA,-0.00314
17,CACATCAA,0.105
18,TACGTGCA,0.0733
19,AGAAGGAT,-0.123
20,ACCCCATA,0.128
21,CCTTGAAG,-0.0902
22,TAGGGGAA,0.0444
